In patent US4239744A, “Radioreceptor assay for benzodiazepines in plasma and other biological specimens” (United States of America, priority 1978, dated 1980):
Values joined by “and” are separate entries in the source; they are usually repeats but may differ in a detail not shown here. Identical values can stand only once.

Experiment: Plasma levels in baboons given diazepam, determined by gas-liquid chromatography (GLC/EC)
Conditions: plasma samples No. 1-11 from baboons given 2-4 mg/kg diazepam; N-demethyldiazepam converted by standard curve and added to diazepam

CN1C(=O)CN=C(c2ccccc2)c2cc(Cl)ccc21 [Diazepam, diazepam]
GLC/EC Assay "Diazepam Equivalents, Calculated": 624 ng/mL and 800 ng/mL
